Measurements reported in the supplement of paper PMC10849652.
The other results are listed elsewhere or left out.

Protein sequences, listed by entry. Tags and fused reporters are not part of them. Lines headed by an entry give the natural chain unless they say otherwise; changes in a name come on top.
UniProt P63172, whole entry, looked up: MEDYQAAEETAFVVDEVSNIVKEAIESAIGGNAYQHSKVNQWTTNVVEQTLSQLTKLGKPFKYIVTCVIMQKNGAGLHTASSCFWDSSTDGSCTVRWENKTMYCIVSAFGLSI
UniProt Q14204, whole entry, looked up: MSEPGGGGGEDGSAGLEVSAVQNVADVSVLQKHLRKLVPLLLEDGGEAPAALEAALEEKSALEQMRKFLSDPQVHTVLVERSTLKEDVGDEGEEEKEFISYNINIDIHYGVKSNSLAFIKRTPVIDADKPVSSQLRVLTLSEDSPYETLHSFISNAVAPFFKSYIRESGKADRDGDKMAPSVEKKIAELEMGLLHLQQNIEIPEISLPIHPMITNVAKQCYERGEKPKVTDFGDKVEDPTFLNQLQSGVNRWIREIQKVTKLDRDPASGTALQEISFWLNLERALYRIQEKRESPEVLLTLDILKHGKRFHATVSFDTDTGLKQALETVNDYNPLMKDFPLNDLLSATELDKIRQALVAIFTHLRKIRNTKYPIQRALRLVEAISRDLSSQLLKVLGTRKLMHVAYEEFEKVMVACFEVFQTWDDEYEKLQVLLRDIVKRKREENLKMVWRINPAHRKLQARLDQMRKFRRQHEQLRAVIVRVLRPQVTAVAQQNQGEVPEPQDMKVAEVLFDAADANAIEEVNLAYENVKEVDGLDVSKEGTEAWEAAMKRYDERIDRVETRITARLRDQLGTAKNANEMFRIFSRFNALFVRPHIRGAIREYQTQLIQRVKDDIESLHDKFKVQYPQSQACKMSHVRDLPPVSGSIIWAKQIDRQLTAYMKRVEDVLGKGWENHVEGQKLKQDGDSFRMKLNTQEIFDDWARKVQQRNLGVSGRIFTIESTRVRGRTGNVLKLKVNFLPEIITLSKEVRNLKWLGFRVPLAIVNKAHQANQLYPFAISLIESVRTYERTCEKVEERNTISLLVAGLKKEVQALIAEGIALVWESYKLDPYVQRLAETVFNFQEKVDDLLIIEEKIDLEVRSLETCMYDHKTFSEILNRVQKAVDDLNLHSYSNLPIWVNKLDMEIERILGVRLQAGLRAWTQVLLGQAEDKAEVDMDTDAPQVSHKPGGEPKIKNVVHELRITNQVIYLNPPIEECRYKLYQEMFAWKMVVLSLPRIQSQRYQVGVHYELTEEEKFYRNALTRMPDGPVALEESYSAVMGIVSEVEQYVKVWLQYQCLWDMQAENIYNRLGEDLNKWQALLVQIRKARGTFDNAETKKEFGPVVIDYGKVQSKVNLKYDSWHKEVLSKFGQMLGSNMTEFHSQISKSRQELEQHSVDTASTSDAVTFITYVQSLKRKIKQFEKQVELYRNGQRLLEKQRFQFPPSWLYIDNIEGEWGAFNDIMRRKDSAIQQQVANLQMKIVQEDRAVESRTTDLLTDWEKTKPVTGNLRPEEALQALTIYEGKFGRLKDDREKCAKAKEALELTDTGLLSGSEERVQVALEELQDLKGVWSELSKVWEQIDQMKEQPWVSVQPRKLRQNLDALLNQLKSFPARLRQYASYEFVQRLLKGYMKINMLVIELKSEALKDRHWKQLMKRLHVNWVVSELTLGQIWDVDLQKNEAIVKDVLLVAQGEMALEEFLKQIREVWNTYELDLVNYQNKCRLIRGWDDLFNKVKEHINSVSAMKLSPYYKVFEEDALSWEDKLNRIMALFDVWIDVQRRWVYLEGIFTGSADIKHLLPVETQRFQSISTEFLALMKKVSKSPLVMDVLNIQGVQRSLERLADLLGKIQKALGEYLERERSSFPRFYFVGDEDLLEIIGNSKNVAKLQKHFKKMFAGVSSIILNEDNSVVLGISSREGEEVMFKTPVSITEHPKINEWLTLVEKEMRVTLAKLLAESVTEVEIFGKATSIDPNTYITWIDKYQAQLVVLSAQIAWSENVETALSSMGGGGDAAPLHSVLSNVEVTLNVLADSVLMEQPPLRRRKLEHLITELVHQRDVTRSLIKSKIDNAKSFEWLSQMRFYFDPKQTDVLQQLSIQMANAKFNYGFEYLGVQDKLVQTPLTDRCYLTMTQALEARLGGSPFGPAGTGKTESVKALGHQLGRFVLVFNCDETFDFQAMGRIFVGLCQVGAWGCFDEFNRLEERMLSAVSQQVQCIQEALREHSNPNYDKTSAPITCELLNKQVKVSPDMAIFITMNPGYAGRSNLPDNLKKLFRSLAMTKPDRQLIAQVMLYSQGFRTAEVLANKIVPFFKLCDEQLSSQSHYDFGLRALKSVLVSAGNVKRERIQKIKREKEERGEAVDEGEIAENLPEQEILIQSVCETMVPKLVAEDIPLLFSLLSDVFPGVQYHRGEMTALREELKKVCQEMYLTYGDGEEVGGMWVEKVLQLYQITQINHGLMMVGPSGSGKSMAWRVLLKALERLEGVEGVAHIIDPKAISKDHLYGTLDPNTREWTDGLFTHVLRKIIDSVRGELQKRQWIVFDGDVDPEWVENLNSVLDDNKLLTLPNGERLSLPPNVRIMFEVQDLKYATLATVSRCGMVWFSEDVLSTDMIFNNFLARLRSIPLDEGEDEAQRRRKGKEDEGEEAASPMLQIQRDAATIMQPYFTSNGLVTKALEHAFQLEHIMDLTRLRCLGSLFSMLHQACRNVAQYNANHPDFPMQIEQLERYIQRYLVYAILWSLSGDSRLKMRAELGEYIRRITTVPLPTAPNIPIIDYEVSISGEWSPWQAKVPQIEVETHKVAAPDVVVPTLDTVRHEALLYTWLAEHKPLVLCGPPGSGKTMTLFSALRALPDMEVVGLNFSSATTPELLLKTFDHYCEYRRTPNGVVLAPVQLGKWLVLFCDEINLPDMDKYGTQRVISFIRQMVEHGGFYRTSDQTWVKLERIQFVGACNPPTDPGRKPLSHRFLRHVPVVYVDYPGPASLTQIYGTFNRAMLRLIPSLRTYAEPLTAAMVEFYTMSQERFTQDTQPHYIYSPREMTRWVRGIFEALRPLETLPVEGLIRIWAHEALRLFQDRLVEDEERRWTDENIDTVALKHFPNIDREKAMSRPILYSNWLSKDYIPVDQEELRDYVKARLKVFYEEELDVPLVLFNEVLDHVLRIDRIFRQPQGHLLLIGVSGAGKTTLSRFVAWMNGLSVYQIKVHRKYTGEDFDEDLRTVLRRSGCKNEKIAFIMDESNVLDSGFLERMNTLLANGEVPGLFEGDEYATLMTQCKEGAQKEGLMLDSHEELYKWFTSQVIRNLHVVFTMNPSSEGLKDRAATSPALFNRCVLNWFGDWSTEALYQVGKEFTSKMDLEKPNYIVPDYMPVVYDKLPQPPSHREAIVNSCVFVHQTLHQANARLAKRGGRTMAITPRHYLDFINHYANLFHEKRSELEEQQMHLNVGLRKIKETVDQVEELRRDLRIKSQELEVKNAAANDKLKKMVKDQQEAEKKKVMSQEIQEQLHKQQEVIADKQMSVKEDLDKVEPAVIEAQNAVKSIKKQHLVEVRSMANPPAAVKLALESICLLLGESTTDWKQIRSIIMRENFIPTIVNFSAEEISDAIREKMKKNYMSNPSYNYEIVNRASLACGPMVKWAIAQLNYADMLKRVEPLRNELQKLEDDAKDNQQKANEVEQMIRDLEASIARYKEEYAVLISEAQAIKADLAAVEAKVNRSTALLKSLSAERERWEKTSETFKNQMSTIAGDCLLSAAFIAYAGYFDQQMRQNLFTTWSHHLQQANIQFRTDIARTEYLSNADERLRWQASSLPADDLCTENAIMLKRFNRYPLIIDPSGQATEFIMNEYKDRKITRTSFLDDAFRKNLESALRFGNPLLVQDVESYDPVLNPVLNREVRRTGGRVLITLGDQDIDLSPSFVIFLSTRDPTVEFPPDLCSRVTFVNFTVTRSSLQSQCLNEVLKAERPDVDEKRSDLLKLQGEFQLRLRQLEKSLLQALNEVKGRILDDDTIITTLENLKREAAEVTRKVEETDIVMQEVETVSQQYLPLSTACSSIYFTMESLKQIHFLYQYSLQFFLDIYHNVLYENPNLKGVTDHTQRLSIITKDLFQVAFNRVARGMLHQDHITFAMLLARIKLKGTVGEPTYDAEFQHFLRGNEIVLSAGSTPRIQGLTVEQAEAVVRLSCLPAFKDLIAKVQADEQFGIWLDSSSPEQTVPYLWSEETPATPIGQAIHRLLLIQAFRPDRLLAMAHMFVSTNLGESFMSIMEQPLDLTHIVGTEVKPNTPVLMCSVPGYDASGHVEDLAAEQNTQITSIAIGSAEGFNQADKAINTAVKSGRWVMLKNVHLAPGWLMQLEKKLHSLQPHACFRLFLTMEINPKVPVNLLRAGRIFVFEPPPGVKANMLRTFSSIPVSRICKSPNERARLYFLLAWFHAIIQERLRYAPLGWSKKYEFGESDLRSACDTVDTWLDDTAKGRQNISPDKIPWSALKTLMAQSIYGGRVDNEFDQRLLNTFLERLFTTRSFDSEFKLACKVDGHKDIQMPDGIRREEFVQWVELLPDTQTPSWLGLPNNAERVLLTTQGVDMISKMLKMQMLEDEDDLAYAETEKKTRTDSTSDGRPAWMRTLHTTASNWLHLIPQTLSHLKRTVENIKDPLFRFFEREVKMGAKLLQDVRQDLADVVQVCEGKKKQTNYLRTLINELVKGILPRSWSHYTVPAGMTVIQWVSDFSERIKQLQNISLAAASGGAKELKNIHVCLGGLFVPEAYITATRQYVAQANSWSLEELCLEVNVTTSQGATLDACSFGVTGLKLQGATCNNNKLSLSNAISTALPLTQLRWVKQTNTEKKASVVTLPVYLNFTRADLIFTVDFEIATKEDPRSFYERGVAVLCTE
UniProt Q13011: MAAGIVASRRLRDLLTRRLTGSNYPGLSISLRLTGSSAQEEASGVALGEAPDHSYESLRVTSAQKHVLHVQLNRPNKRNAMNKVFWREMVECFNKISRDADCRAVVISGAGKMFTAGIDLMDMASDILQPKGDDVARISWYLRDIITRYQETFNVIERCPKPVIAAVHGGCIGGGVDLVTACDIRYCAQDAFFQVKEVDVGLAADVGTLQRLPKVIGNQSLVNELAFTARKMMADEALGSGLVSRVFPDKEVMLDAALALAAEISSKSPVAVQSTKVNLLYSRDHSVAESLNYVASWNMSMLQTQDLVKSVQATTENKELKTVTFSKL
UniProt Q6P3W2: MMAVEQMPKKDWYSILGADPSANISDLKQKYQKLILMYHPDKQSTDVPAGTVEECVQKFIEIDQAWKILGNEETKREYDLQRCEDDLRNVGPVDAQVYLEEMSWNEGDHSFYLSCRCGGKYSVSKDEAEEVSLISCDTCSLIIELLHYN
UniProt Q99615: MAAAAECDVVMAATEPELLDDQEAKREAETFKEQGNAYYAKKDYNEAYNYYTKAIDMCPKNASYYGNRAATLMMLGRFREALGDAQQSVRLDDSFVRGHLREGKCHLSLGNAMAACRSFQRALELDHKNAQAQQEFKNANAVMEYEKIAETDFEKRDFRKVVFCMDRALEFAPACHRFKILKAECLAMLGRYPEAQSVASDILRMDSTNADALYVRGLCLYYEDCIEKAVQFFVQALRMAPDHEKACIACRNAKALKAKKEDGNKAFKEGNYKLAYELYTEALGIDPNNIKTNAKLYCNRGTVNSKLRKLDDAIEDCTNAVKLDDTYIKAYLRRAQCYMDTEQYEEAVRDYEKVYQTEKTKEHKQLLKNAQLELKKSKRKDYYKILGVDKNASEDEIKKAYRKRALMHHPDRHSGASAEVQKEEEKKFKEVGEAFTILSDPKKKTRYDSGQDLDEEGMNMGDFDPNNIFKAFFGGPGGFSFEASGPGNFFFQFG
UniProt P63167, whole entry, looked up: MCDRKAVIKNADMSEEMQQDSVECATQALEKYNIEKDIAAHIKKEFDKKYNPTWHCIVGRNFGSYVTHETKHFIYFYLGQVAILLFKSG
UniProt Q9NZJ0: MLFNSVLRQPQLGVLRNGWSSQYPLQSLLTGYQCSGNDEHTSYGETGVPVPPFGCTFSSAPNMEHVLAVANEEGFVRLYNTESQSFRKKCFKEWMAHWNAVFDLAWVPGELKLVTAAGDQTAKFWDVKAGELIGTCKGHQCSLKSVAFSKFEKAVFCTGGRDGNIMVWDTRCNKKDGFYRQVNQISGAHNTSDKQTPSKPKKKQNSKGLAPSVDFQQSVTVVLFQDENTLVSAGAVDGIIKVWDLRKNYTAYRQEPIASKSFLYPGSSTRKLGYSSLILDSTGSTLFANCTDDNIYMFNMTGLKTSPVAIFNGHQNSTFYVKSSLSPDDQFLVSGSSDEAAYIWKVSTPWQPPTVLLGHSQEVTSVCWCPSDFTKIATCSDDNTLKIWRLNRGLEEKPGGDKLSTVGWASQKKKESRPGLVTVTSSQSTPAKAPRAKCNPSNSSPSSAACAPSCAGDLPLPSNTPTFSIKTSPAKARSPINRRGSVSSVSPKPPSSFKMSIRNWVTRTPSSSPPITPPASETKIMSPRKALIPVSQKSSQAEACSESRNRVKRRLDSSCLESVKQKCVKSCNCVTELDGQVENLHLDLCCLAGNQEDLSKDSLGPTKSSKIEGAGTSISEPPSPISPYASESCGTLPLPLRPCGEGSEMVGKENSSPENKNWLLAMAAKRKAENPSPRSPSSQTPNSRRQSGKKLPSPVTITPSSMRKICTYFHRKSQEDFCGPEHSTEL

What was measured:
Experiment in all cases: log2 fold change, soluble protein after heating vs DMSO (PISA); higher = thermal stabilisation; K562 cells, 10 uM, 30 min; active = over 0.2 and 3.5 SD of the protein, either way, in both replicates (recomputed)
[1] = compound: C1=CC=C(C=C1)[C@H](COC2=CC3=C(C=C2)NC(=O)N3)NC(=O)C4=CC=CN(C4=O)CC5=CC(=C(C=C5)F)F
Method in brief: (§1)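 K562 cells at 2×10^6 cells/mL were treated with 10 μM compound for 30 min. Aliquots were heated for 3 min across 48°C-58°C, pooled, and extracted in PBS with 0.5% NP-40 at 4°C; soluble protein was the supernatant after 21,000xg for 90 min. Soluble protein was quantified by TMTpro 16plex LC-MS/MS with channel sums equalised, and reported as log2 fold change in thermal stability against DMSO controls, with values from duplicates.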

[2] = compound: CC1=C(SC2=C1C(=N[C@H](C3=NN=C(N32)C)CC(=O)N)C4=CC=C(C=C4)Cl)C
Method in brief: as §1

[3] = compound: CC1=C2C(=CC=C1)N=C(N(C2=O)C3=CC=CC=C3C)CN4C=NC5=C(N=CN=C54)N
Method in brief: as §1

[4] = compound: Cc1sc2c(c1C)C(c1ccc(Cl)cc1)=N[C@@H](CC(=O)OC(C)(C)C)c1nnc(C)n1-2
Method in brief: as §1

[5] = compound: c1ccc([C@@H]2C[C@H]2NC2CCNCC2)cc1
Method in brief: as §1

Measured: log2 fold change

DYNLT1 (UniProt P63172)
inactive: [1] -0.022 | [2] 0.139 | [3] 0.087 | [4] 0.06 | [5] -0.104

DTYMK (UniProt P23919)
inactive: [1] -0.064 | [2] 0.082 | [3] -0.02 | [4] -0.003 | [5] -0.014

DYNC1H1 (UniProt Q14204)
inactive: [1] -0.006 | [2] 0.02 | [3] 0.023 | [4] -0.013 | [5] -0.048

ECH1 (UniProt Q13011)
inactive: [1] -0.072 | [2] 0.161 | [3] 0.086 | [4] -0.114 | [5] -0.046

DNMT1 isoform 2 (UniProt P26358)
inactive: [1] -0.007 | [2] 0.041 | [3] 0.032 | [4] -0.009 | [5] -0.025

ECM1 isoform 4 (UniProt Q16610)
inactive: [1] 0.023 | [2] 0.016 | [3] 0.009 | [4] 0.038 | [5] 0.037

Fetched one by one from the entries so far, two records:
DTYMK (UniProt P23919)
inactive: [1] -0.064 | [2] 0.082 | [3] -0.02 | [4] -0.003 | [5] -0.014

DYNC1H1 (UniProt Q14204)
inactive: [1] -0.006 | [2] 0.02 | [3] 0.023 | [4] -0.013 | [5] -0.048

Additional results follow:

EDEM1 (UniProt Q92611)
inactive: [1] 0.006 | [2] 0.068 | [3] 0.017 | [4] -0.105 | [5] -0.074

ECI2 (UniProt O75521)
inactive: [1] -0.047 | [2] 0.052 | [3] 0.027 | [4] -0.041 | [5] 0

DPY19L4 (UniProt Q7Z388)
inactive: [1] -0.025 | [2] -0.259 | [3] 0.092 | [4] 0.043 | [5] 0.133

DUS4L (UniProt O95620)
inactive: [1] 0.17 | [2] -0.057 | [3] 0.07 | [4] 0 | [5] 0.031

DSN1 (UniProt Q9H410)
inactive: [1] 0.02 | [2] 0.016 | [3] 0.059 | [4] 0.045 | [5] -0.054

DPM1 (UniProt O60762)
inactive: [1] 0.011 | [2] 0.052 | [3] -0.018 | [4] -0.016 | [5] 0.032

DNAJC24 (UniProt Q6P3W2)
inactive: [1] 0.05 | [2] 0.072 | [3] 0.025 | [4] -0.002 | [5] 0.054

DNAJC7 (UniProt Q99615)
inactive: [1] -0.045 | [2] 0.043 | [3] 0.072 | [4] -0.013 | [5] 0

DYNLL1 (UniProt P63167)
inactive: [1] 0.004 | [2] 0.175 | [3] 0.043 | [4] -0.112 | [5] -0.027

DPH7 (UniProt Q9BTV6)
inactive: [1] 0.024 | [2] 0.028 | [3] 0.009 | [4] -0.063 | [5] -0.025

EDC3 (UniProt Q96F86)
inactive: [1] -0.198 | [2] 0.12 | [3] 0.019 | [4] 0.063 | [5] 0.026

DNAJB6 (UniProt O75190)
inactive: [1] 0.033 | [2] 0.035 | [3] 0.057 | [4] -0.091 | [5] 0.071

DNAJC16 (UniProt Q9Y2G8)
inactive: [1] 0.246 | [2] -0.041 | [3] -0.007 | [4] 0.118 | [5] -0.032

DTL (UniProt Q9NZJ0)
inactive: [1] -0.035 | [2] 0.07 | [3] 0.12 | [4] -0.036 | [5] -0.038

DYM (UniProt Q7RTS9)
inactive: [1] 0.052 | [2] 0 | [3] 0.143 | [4] -0.06 | [5] -0.052

EDEM3 (UniProt Q9BZQ6)
inactive: [1] 0.053 | [2] -0.073 | [3] -0.008 | [4] 0.026 | [5] -0.009

ECPAS (UniProt Q5VYK3)
inactive: [1] -0.127 | [2] 0.047 | [3] 0.112 | [4] -0.032 | [5] -0.01

DNM2 (UniProt P50570)
inactive: [1] -0.023 | [2] 0.044 | [3] 0.078 | [4] -0.027 | [5] -0.036

DOCK7 (UniProt Q96N67)
inactive: [1] -0.04 | [2] 0.11 | [3] -0.01 | [4] -0.048 | [5] 0
